# According to patent US20240398844A1, “PHENYLCOUMARINS FOR TREATING INFLAMMATION” (Ohio State Innovation Foundation, priority 2021, published 2024):
# At least one structure is not confirmed: it was looked up by name or label, or the drawing left a doubt.
# What was measured:
# Assay type in all cases: in vivo
# HbA1C = test: Diabetic zebrafish Western blot, HbA1C expression
# Method: (§1) Alloxan-induced diabetic zebrafish were treated with compounds for immunoblot to validate the newly developed animal model, determine the antidiabetic potential of natural product leads, evaluate glucose metabolism, and discover possible mechanisms of action.
# (§2) At 72 hpf, naturally dechorionated zebrafish were sorted into a 24-well microplate with 10 fish per well. Type 2 diabetes was induced with the diabetogenic agent alloxan at a dose of 0.5 mg/mL in system water for 3 hours. […] After 3 hours of treatment with natural product samples, 10 mg/mL D-glucose was administered in system water for 30 minutes, followed by 1 hour in fresh system water to metabolize the glucose and natural product leads. […] Protein content of homogenate supernatant was determined using the Pierce BCA Protein Assay kit (Pierce Biotechnology) and bovine serum albumin (BSA) standard curve. Absorbance of protein solutions from zebrafish homogenates and serial dilutions of the BSA standard were measured at 544 nm, using a FLUOstar Optima plate reader (BMG Labtechnologies GmbH, Inc.). Homogenates were analyzed by Western blot. […]
# (§3) Electrophoresis was performed using NuPAGE MES SDS Running Buffer and XCell SureLock Mini-Cell Electrophoresis System (Life Technologies). […] Conjugated antibodies were detected using SuperSignal West Femto chemiluminescent substrate from Pierce Biotechnology. […]
# NFκB p65 = test: Diabetic zebrafish Western blot, NFκB expression; details: diabetic zebrafish, 10, 5, and 1 μM (rosiglitazone 10 μM), FIG. 10
# Method: as §1, §2, §3
# PEPCK = test: Diabetic zebrafish Western blot, PEPCK expression; details: 10 μM, library screen, FIG. 4 / FIG. 11
# Method: as §1
# At 72 hpf, naturally dechorionated zebrafish were sorted into a 24-well microplate with 10 fish per well. Type 2 diabetes was induced with the diabetogenic agent alloxan at a dose of 0.5 mg/mL in system water for 3 hours. The incubation solution was changed to 0.01% DMSO in system water with compounds at concentrations of 20 μg/mL or 10 PM, respectively. […] Protein content of homogenate supernatant was determined using the Pierce BCA Protein Assay kit (Pierce Biotechnology) and bovine serum albumin (BSA) standard curve. Absorbance of protein solutions from zebrafish homogenates and serial dilutions of the BSA standard were measured at 544 nm, using a FLUOstar Optima plate reader (BMG Labtechnologies GmbH, Inc.). Homogenates were analyzed by Western blot. […]
# Electrophoresis was performed using NuPAGE MES SDS Running Buffer and XCell SureLock Mini-Cell Electrophoresis System (Life Technologies). […] Conjugated antibodies were detected using SuperSignal West Femto chemiluminescent substrate from Pierce Biotechnology. […] Band density was quantified for proteins of interest using ImageJ Gel Analysis. […]
smiles,measurement,setting,value
"CN(CCOc1ccc(CC2SC(=O)NC2=O)cc1)c1ccccn1 (stereo not shown) [Rosiglitazone, reference compound]",HbA1C expression (Western blot band density),"HbA1C; diabetic zebrafish, 10 μM, library screen, FIG. 2 / FIG. 11",significantly reduced in comparison to untreated diabetic zebrafish
same,HbA1C expression (Western blot band density),"HbA1C; diabetic zebrafish, 10, 5, and 1 μM (rosiglitazone 10 μM), duplicate blots, FIG. 7",opposite of the hypoglycemic effect expected
same,NFκB p65 expression (Western blot band density),NFκB p65,did not significantly inhibit NFκB expression
same,PEPCK expression (Western blot band density),PEPCK,31>rosiglitazone>22>23
